Laboratory results as given in the supplement of paper PMC12889115.
This is one part of the list. These are raw signals, not scaled to a control.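 First-pass screen: polymyxin B was added at a level that permeabilizes the Salmonella outer membrane while sparing the inner membrane. DMSO wells, with and without polymyxin B, defined maximum growth. Because plates differed from one another, each plate's data were ranked separately and the compounds with the lowest OD600 were carried forward as hits.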

System: Salmonella enterica serovar Typhimurium SL1344
Assay: bacterial growth OD600 after 18 h with compound and polymyxin B; higher = more bacterial growth (less inhibition)
Conditions: 50 µM, Mueller-Hinton broth

SMILES | bacterial growth OD600 (polymyxin B 1 µg/mL) | bacterial growth OD600 (polymyxin B 0.75 µg/mL)
O=C(NCc1cccc(C(F)(F)F)c1)C1CCC(=O)N(C2CCCCCC2)C1 (configuration not stated) | 0.914 | 
CN(Cc1cnccn1)C(=O)CC(c1ccccc1)c1ccccc1Cl (configuration not stated) | 0.742 | 
c1cncc(-c2ncc3c(n2)CCCC3NCc2ccncc2)c1 (configuration not stated) |  | 0.864
Cc1cccc2nc(CN(C)Cc3cnc(S(C)(=O)=O)n3CC3CCCO3)[nH]c12 (configuration not stated) | 1.03 | 
CN(Cc1ccon1)c1ccc(C(=O)N2CCC(CCn3cccn3)CC2)cn1 | 1.28 | 
COCc1ccc(C(=O)Nc2ccc(-c3nc(CNC(=O)c4ccccc4SC)c(C)o3)cc2)o1 |  | 0.841
CCC(CC)NCc1cccnc1Oc1ccc(C)nc1 |  | 0.947
Cn1nccc1C(=O)N1CCC(C2CCN(Cc3cccnc3)CC2)C1 (configuration not stated) |  | 0.858
O=C1NCCN1CCNc1ccc(-c2nc(-c3ccccc3F)no2)cn1 | 0.917 | 
COc1ccc(C(=O)N2CCCC(Nc3ccc(C)c(C)c3)C2)cc1OC (configuration not stated) | 0.863 | 
CCOC(=O)C1(CCOc2ccccc2)CCN(CC2CC2)CC1 | 0.877 | 
O=C(NC1CCc2ccccc21)C1CC(CCc2ccccc2)=NO1 (configuration not stated) |  | 0.607
COc1ccc(C(CC(=O)N(C)C)c2ccccc2)cc1 (configuration not stated) | 0.829 | 
COc1ccc(-c2cnnc(N3CC[C@@H]4CCCC[C@H]4C3)n2)cc1F |  | 0.166
CC(C)(O)C#Cc1ccc(CN2CCCC(CNC(=O)c3ccco3)C2)cc1 (configuration not stated) | 0.867 | 
O=C(c1ccc[n+]([O-])c1)N1CCC(C2CCN(c3ncccn3)CC2)C1 (configuration not stated) |  | 0.843

SMILES | bacterial growth OD600 (polymyxin B 1 µg/mL) | bacterial growth OD600 (polymyxin B 0.75 µg/mL)
CCN(CC)C1CCN(C(=O)CCc2nnc(Cc3cc(OC)ccc3OC)o2)C1 (configuration not stated) | 0.726 | 
Cc1cc(C)n(-c2ccc(NC(=O)C3CCN(C(=O)C4CCC4)CC3)cc2)n1 | 0.807 | 
CN(Cc1ccccc1)c1ncccc1CNC(=O)CN1CCOC1=O | 0.902 | 
CCO[C@H]1[C@H](NC(=O)c2ccco2)c2ccccc2C12CCN(C(=O)c1cn3c(C)cccc3n1)CC2 |  | 0.827
CCN1CCN(C2(C(=O)NC3CCOC(C)(C)C3)Cc3ccccc3C2)CC1 (configuration not stated) |  | 0.857
OC(Cc1ccccc1)c1ccc2c(c1)CN(Cc1c(F)ccc(F)c1F)CCO2 (configuration not stated) |  | 0.004
CCOC(=O)C1(CCCc2ccccc2)CCN(C(=O)CN2CCOC2=O)CC1 | 0.837 | 
O=C(NCC1CCCCO1)c1cc(Cn2ccc3ccccc32)[nH]n1 (configuration not stated) | 0.927 | 
Cc1cccn2c(CNC(C)CCCC(C)(C)O)c(C(=O)N3CCOCC3)nc12 (configuration not stated) |  | 0.978
Cc1cccc(-c2cnc(-c3ccncc3)nc2C2CCN(C(=O)CC3=CCCCC3)CC2)c1 |  | -0.003
CCOC(=O)N1CCC(NCc2cccnc2Oc2ccccc2C)CC1 | 0.827 | 
Cc1nc(N2CCC(C(=O)N3CCCC(c4ccccc4)C3)CC2)nc2cc(S(C)(=O)=O)ccc12 (configuration not stated) |  | 0.755
COC(C(=O)N1CCc2c(cnc(C)c2CNC(=O)CSc2ccccc2)C1)c1ccccc1 (configuration not stated) |  | 0.848
CCOC(=O)CNC(=O)N1CCc2onc(-c3cccc(OC)c3)c2C1 |  | 0.64
COc1cccc(CNC(=O)c2sc3ncnc(NC[C@H]4C[C@@H]5C=C[C@H]4C5)c3c2C)c1OC |  | 0.774
C[C@@H]1CN(c2ccc(-c3nc(COc4ccccc4)no3)cn2)C[C@H](C)O1 | 0.731 | 

Look-ups from above:
CCOC(=O)CNC(=O)N1CCc2onc(-c3cccc(OC)c3)c2C1 – bacterial growth OD600 (polymyxin B 0.75 µg/mL): 0.64
Cc1nc(N2CCC(C(=O)N3CCCC(c4ccccc4)C3)CC2)nc2cc(S(C)(=O)=O)ccc12 (configuration not stated) – bacterial growth OD600 (polymyxin B 0.75 µg/mL): 0.755
